Assay results from patent US6593300B1 (Gyogyszerkutato Intezet Kft., priority 1997, dated 2003).

Test: general procedure: solution-phase peptide synthesis; dicyclohexylcarbodiimide / N-hydroxy-benzotriazole
Details: coupling step
Work on “(3R)-3-(Ethoxycarbonyl-L-tyrosyl-L-isoleucyl-L-alanylamino)-4-t-butoxycarbonyl-butyraldehyde-diethyl Acetal” yielded a step yield of 73%.
For “(3R)-3-(Acetyl-L-tyrosyl-L-isoleucyl-L-alanyl-amino)-4-t-butoxycarbonyl-butyraldehyde Diethyl Acetal”, the step yield was 96%.
With “(3R)-3-(L-Lactyl-L-tyrosyl-L-isoleucyl-L-alanyl-amino)-4-t-butoxycarbonyl-butyraldehyde Diethyl Acetal” the step yield was 30%.

Same assay, conditions: late stage modification step
For “(3R) -(Acetyl-L-tyosyl-L-valyl-L-alanylamino)-4-carboxybutyraidehyde”, the step yield was 95%.
Substance “(3R)-3-(Ethoxycarbonyl-L-tyrosyl-L-isoleucyl-L-alanylamino)-4-carboxybutyraldehyde” has a step yield of 87%.
Work on “(3R)-3-(L-Lactyl-L-tyrosyl-L-isoleucyl-L-alanylamino)-4-carboxy-butyraldehyde” yielded a step yield of 42%.
In the case of “(3R)-3-(Acetyl-L-tyrosyl-L-isoleucyl-L-alanylamino)-4-carboxybutyraldehyde”, the step yield is reported as 95%.
